Results reported in patent publication US20050175688A1 (priority 2004, published 2005).
Entries after “also recorded” stand apart in the source; their conditions may differ. At least one compound was matched to its structure with a doubt left.

Tested on: chronic pelvic pain/endometriosis
Test: Potaba protocol study: oral Potaba in women with chronic pelvic pain/endometriosis
Format: in vivo
Conditions: 12 grams/day po
Protocol: The total number of women under clinical examination was 212.
All of those who volunteered for the therapy protocol met the criteria of 10 points or more on the self-test, that threshold defining a subject who was at risk for endometriosis.
A pelvic pain assessment which was originated by the International Pelvic Pain Society© 1999 (IPPS) was also conducted. IPPS evaluated the volunteer subjects for the following information: pain, menses, bladder, bowel habits, gastro-intestinal/eating habits, health habits, coping mechanisms, a short form McGill questionnaire (psychological; level of depression assay), daily activities, personal history, surgical history, sexual history and physical history.
In addition to a careful review of the pre-test examinations of the prospective subjects, exclusion criteria were also established as a means of reducing unrelated influences into the test results.
Only one physician conducted the physical evaluation of each of the participants to ensure consistency throughout the study. In addition to repeated laboratory and thorough physical examinations, the examining physician personally discussed and recorded responses to questions about the presence or absence of side-effects and improvements in symptoms, if any. […]

Nc1ccc(C(=O)O)cc1 [Potaba, aminobenzoate potassium]
average period of time to report a noticeable and significant reduction in chronic pain: four
effect on chronic pain (result in words) (women with chronic pelvic pain/endometriosis, potassium): significantly effective pain relief; also recorded: significantly alleviate chronic pain; also recorded: highly effective; also recorded: effective treatment to alleviate the pain
